{
  "source": "the supplement of paper PMC5407854",
  "about": "“Inhibitor of ppGalNAc-T3-mediated O-glycosylation blocks cancer cell invasiveness and lowers FGF23 levels” (eLife, 2017)",
  "note": "The full ranking holds about 1,700 compounds; the median of “T2 sensor activation Q score (MG/GFP ratio z-score vs DMSO controls)” is about 0.3, and the highest 2% start at about 1.9. The list shows a part of the results.",
  "data": [
    {"tested_on": "ppGalNAc-T2 sensor", "assay": "T2 sensor activation Q score (MG/GFP ratio z-score vs DMSO controls) (SD units); higher = more sensor activation (inhibition of ppGalNAc-T2 glycosylation)", "conditions": "HEK293 sensor cells; 10 µM; 6 h", "method": "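Cells were treated with compound at 10 uM for 6 h, then MG/GFP ratio was read by flow cytometry (10,000 cells per well, duplicate wells). Q = (R - R_neg)/SD_neg relative to DMSO vehicle controls; the signal rises when the glycosyltransferase is inhibited.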", "values": [
      {"smiles": "COCC(=O)Oc1cc(-c2ccc(C)cc2C)c(OC(=O)COC)c(-c2ccc(C)cc2C)c1", "T2 sensor activation Q score": 0.9},
      {"smiles": "CC(C)c1ncc(CO)n1Cc1c(Cl)cccc1Cl", "T2 sensor activation Q score": 0.65},
      {"smiles": "Cc1cc(O)cc2c1[C@H]1CC[C@]3(C)C(=O)CC[C@H]3[C@@H]1C=C2", "T2 sensor activation Q score": 1.25},
      {"smiles": "O=C(O)Cc1ccc(N=Nc2c(O)c(C(=O)O)cc3ccccc23)cc1", "T2 sensor activation Q score": 1.2},
      {"smiles": "NS(=O)(=O)c1ccc(NC(=S)NC(=O)c2ccco2)cc1", "T2 sensor activation Q score": 1.85},
      {"smiles": "CC(C)CNC(=O)/C=C\\C(=O)O", "T2 sensor activation Q score": -1.85},
      {"smiles": "CS(=O)(=O)OCCCCOS(C)(=O)=O", "T2 sensor activation Q score": -0.8},
      {"smiles": "CC(=O)Oc1ccc2cc(-c3ccccc3)c(=O)oc2c1", "T2 sensor activation Q score": 1.35},
      {"smiles": "COc1ccc(NC(=O)N2CCN(C(=O)Nc3ccc(OC)cc3)CC2)cc1", "T2 sensor activation Q score": 0.45},
      {"smiles": "Cn1ncc2c(NCc3ccccc3)ncnc21", "T2 sensor activation Q score": 1.3},
      {"smiles": "O=C(C=Cc1ccc(O)c(O)c1)c1ccccc1O", "T2 sensor activation Q score": -0.4},
      {"smiles": "S=c1nc[nH]c2c1cnn2-c1ccccc1", "T2 sensor activation Q score": 0.2},
      {"smiles": "c1ccc(N=NN2CCOCC2)cc1", "T2 sensor activation Q score": -0.25},
      {"smiles": "Clc1ccccc1/C=C/c1ccnc2ccccc12", "T2 sensor activation Q score": 0.15},
      {"smiles": "CC1=CC(=C2C=CC(=O)C=C2)C=C(C)N1C", "T2 sensor activation Q score": 0.15},
      {"smiles": "CCNc1nc(Cl)nc(-c2cn(-c3ccccc3)c3ccccc23)n1", "T2 sensor activation Q score": -0.1},
      {"smiles": "O=C1CC(c2ccc(O)cc2)Oc2cc(O)cc(O)c21", "note": "(stereo not given)", "T2 sensor activation Q score": 0.75},
      {"smiles": "O=C(Nc1cccc(Cl)c1)Nc1nccs1", "T2 sensor activation Q score": 0.95},
      {"smiles": "CCC(C)NC(=O)c1cccc(C)c1", "note": "(stereo not given)", "T2 sensor activation Q score": 1.85},
      {"smiles": "CN(C)c1ccc(/C=C(\\C#N)C(=O)c2ccccc2)cc1", "T2 sensor activation Q score": -0.3},
      {"smiles": "COc1ccccc1NC(=O)Nc1cc(C(C)C)ccc1C", "T2 sensor activation Q score": -0.25},
      {"smiles": "COc1cccc2c1C(=O)c1c(O)c3c(c(O)c1C2=O)C[C@@](O)(C(C)=O)C[C@@H]3O[C@H]1C[C@H](N)[C@H](O)[C@H](C)O1", "T2 sensor activation Q score": -3.15},
      {"smiles": "CNC(=O)c1cc(Oc2ccc(NC(=O)Nc3ccc(Cl)c(C(F)(F)F)c3)cc2)ccn1", "T2 sensor activation Q score": -0.85},
      {"smiles": "Cc1c([N+](=O)[O-])oc2c1C(=O)NCCC2", "T2 sensor activation Q score": 1.05},
      {"smiles": "CN(c1cccnc1)c1ncnc2[nH]ncc12", "T2 sensor activation Q score": 1.15},
      {"smiles": "Cc1ccc(Nc2nc(Cl)nc3ncn(C)c23)c(C)c1", "T2 sensor activation Q score": 0.55},
      {"smiles": "COc1ccc([N+](=O)[O-])cc1NS(=O)(=O)c1ccc(C)cc1", "T2 sensor activation Q score": -0.4},
      {"smiles": "Cc1ccc(Nc2nnc(-c3ccc4c(c3)OCO4)o2)c(C)c1", "T2 sensor activation Q score": 0.5},
      {"smiles": "Oc1[nH]c(N=C2N=c3ccccc3=N2)c2ccccc12", "T2 sensor activation Q score": -0.35},
      {"smiles": "C[C@@H]1C[C@H]2OC(=O)[C@@]3(C)CCC[C@@](C)([C@@H]23)[C@@]1(O)CCc1ccoc1", "T2 sensor activation Q score": -1.85},
      {"smiles": "O=C(NC(=S)Nc1ccccn1)c1ccccc1", "T2 sensor activation Q score": -1.25},
      {"smiles": "Cn1ncc2c(Nc3ccc(O)cc3)nc(Cl)nc21", "T2 sensor activation Q score": 0.25},
      {"smiles": "CSC1=NC=C(C#N)C2=NC(c3ccc(Cl)cc3)NN12", "note": "(stereo not given)", "T2 sensor activation Q score": 2.45},
      {"smiles": "O=c1[nH]c(=S)c2[nH]c(=S)n(-c3ccccc3)c2[nH]1", "T2 sensor activation Q score": 0.85},
      {"smiles": "COC1CC(C)C(OC)c2cc(O)cc(c2O)NC(=O)/C(C)=C/C=C\\C(C)C(OC(N)=O)/C(C)=C/C(C)C1OC", "note": "(stereo not given)", "T2 sensor activation Q score": 1.05},
      {"smiles": "Cc1ccc(-c2cssc2=S)cc1", "T2 sensor activation Q score": 1.05},
      {"smiles": "O=C(c1ccccc1)c1ccc[nH]1", "T2 sensor activation Q score": -1.85},
      {"smiles": "Nc1ccc(C(=O)Nc2ccc(NC(=O)c3ccco3)c(O)c2)cc1", "T2 sensor activation Q score": -0.3},
      {"smiles": "Cc1ccc(S(=O)(=O)Oc2cc(N)c3c(n2)CCC3)cc1", "T2 sensor activation Q score": 0.3},
      {"smiles": "COC(=O)c1ccccc1NCCO", "T2 sensor activation Q score": -0.65},
      {"smiles": "Cc1cc(NC(=O)Nc2cc(F)ccc2F)no1", "T2 sensor activation Q score": 0.4},
      {"smiles": "O=C(CN1CCCC1)Nc1nc(-c2ccc(Cl)cc2)cs1", "T2 sensor activation Q score": -1.45},
      {"smiles": "COc1cc2c(cc1OC)C(C1(O)CCCCC1)NCC2", "note": "(stereo not given)", "T2 sensor activation Q score": -1.6},
      {"smiles": "O=S(=O)(Oc1ccc(Cl)cc1)c1cccc2cccnc12", "T2 sensor activation Q score": -2},
      {"smiles": "Cc1nn(-c2ccccc2)c2c1C(c1ccc([N+](=O)[O-])cc1)C(C#N)=C(N)O2", "note": "(stereo not given)", "T2 sensor activation Q score": -1.35},
      {"smiles": "Nc1ccc(C(=O)c2cccs2)cn1", "T2 sensor activation Q score": 0},
      {"smiles": "CC(C)=CCC1=C(OCC(=O)O)C(=O)c2ccccc2C1=O", "T2 sensor activation Q score": 0.8},
      {"smiles": "COc1cc([N+](=O)[O-])ccc1NC(=O)Oc1ccc(NC(C)=O)cc1", "T2 sensor activation Q score": 0.6},
      {"smiles": "O=C(Nc1ccc(Oc2ccc(NC(=O)Nc3ccccc3Cl)cc2)cc1)Nc1ccccc1Cl", "T2 sensor activation Q score": 1},
      {"smiles": "CC1(C)N=C(N)N=C(N)N1c1ccc(OCCCOc2ccccc2)c(Cl)c1", "T2 sensor activation Q score": -0.85},
      {"smiles": "O=C1OC(CN(Cc2ccccc2)Cc2ccccc2)CN1/N=C/c1ccc([N+](=O)[O-])o1", "note": "(stereo not given)", "T2 sensor activation Q score": 0.1},
      {"smiles": "CNC(=O)c1cc(Oc2ccc(NC(=O)Nc3ccc(Cl)c(C(F)(F)F)c3)c(F)c2)ccn1", "T2 sensor activation Q score": -1.75},
      {"smiles": "Cc1c(Cl)ccc2c(C(=O)O)cc(-c3ccccc3)nc12", "T2 sensor activation Q score": 0.6},
      {"smiles": "CCOC(=O)c1c(C)oc(C)c(C(=O)OCC)c1=O", "T2 sensor activation Q score": 0.35},
      {"smiles": "CCc1nc(N)nc(N)c1-c1ccc(N(C)Cc2ccccc2)c([N+](=O)[O-])c1", "T2 sensor activation Q score": -1.25},
      {"smiles": "Clc1ccc(-c2n[nH]c3c2Cc2ccccc2-3)cc1Cl", "T2 sensor activation Q score": 0.35},
      {"smiles": "Nc1c(Cl)ncnc1NCCO", "T2 sensor activation Q score": -1.25},
      {"smiles": "CC1=CC2(C)NC(=O)C(C)C12", "note": "(stereo not given)", "T2 sensor activation Q score": -0.35},
      {"smiles": "Nc1ccc(OC(=O)Nc2ccc(O)cc2)cc1", "T2 sensor activation Q score": 0.8},
      {"smiles": "O=C1NC(=O)C(Cc2ccccc2)(c2cccnc2)N1", "note": "(stereo not given)", "T2 sensor activation Q score": -1.6},
      {"smiles": "O=C1NC(=O)C2(CCc3ccccc32)N1", "note": "(stereo not given)", "T2 sensor activation Q score": 1.3},
      {"smiles": "CCOC(=O)c1nn(C)c2[nH]c(=O)n(C)c(=O)c12", "T2 sensor activation Q score": 1.25},
      {"smiles": "Cc1ccc2ccc(C#N)cc2c1O", "T2 sensor activation Q score": -0.1},
      {"smiles": "O=[N+]([O-])c1ccc(-c2ncc(-c3ccc(Br)cc3)o2)cc1", "T2 sensor activation Q score": -0.6},
      {"smiles": "CC(C)(C#N)c1cc(Cn2cncn2)cc(C(C)(C)C#N)c1", "T2 sensor activation Q score": -2.05},
      {"smiles": "OCc1ncc(-c2ccccc2)s1", "T2 sensor activation Q score": -0.4},
      {"smiles": "Cc1nc2c(O)cccc2cc1CO", "T2 sensor activation Q score": 0.65},
      {"smiles": "O=C(O)CCN1c2ccccc2Sc2ccccc21", "T2 sensor activation Q score": -1.15},
      {"smiles": "CCOC(=O)c1ccc(NC(=O)Oc2cc(C)c(Cl)cc2C(C)C)cc1", "T2 sensor activation Q score": 0.1},
      {"smiles": "O=C1Cc2cccc(=O)c(O)c2C(=O)O1", "T2 sensor activation Q score": 0.1},
      {"smiles": "O=C(Nc1ccc(Nc2ccccc2)cc1)Nc1ccccc1Cl", "T2 sensor activation Q score": -1.35},
      {"smiles": "COc1cc(-c2ccc(Nc3ccccc3C(=O)O)c(OC)c2)ccc1Nc1ccccc1C(=O)O", "T2 sensor activation Q score": -0.5},
      {"smiles": "CC[C@]1(O)C[C@H]2CN(CCc3c([nH]c4ccccc34)[C@@](C(=O)OC)(c3cc4c(cc3OC)N(C=O)[C@H]3[C@@](O)(C(=O)OC)[C@H](OC(C)=O)[C@]5(CC)C=CCN6CC[C@]43[C@@H]65)C2)C1", "T2 sensor activation Q score": 1.4},
      {"smiles": "COC(=O)c1cc(C)[nH]c2c(C)cc3nc4ccccc4c3c12", "T2 sensor activation Q score": 0.65},
      {"smiles": "CC(=O)OC1C=CCC2C(=O)c3cccc(O)c3C(O)C12", "note": "(stereo not given)", "T2 sensor activation Q score": 1.2}
    ]}
  ]
}
